PubChem BioAssay AID652243, Drosophila RNAi Screening Center, 2013

Screen: 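Fly regulators of androgen-dependent reporter output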 (primary screen)
Cells: Drosophila S2R+ cells
Reagent: long dsRNA against Drosophila genes
Time to read-out: 72 h (48 h, then 24 h hormone)
Challenge: synthetic androgen R1881 at 10 nM for 24 h
Read-out: 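Per-well raw luminescence of the androgen-driven firefly reporter and of the Renilla control, two replicates each, without normalisation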
Direction: firefly reporter light: higher = more light from androgen-responsive reporter; Renilla control light: higher = more constitutive control signal (cell number, transfection)
Hit rule: 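Hit when the log firefly-to-Renilla ratio dropped or increased by a fixed fold versus the mean of GFP or LacZ controls across duplicate plates; lowering cut given as 1.5 and as 3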
Meaning of the calls: active = hit: reporter lowered or raised; inactive = no hit
The screen tested about 24,000 reagents; shown is an unselected part of those with a known target gene and a result. In the full data, 246 (1%) were called active. 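Plates not normalised; calls are printed but the firefly/Renilla ratio behind them is not deposited; fold cut for lowering reported inconsistently.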 The raw values are shown without normalisation. Entries without a mark were called inactive. Names joined by + are all predicted targets of the reagent. Not stated in the record: the amount of reagent.

{"gene": "osp (outspread)", "dsRNA": "DRSC01409", "firefly reporter light, replicate 1": 1.33e5, "firefly reporter light, replicate 2": 2.31e5, "Renilla control light, replicate 1": 6.56e5, "Renilla control light, replicate 2": 6.54e5}
{"gene": "osp (outspread)", "dsRNA": "DRSC03585", "firefly reporter light, replicate 1": 3.38e5, "firefly reporter light, replicate 2": 5.13e5, "Renilla control light, replicate 1": 1.06e6, "Renilla control light, replicate 2": 1.32e6}
{"gene": "RhoGAPp190 (Rho GTPase activating protein p190)", "dsRNA": "DRSC20097", "firefly reporter light, replicate 1": 4.39e5, "firefly reporter light, replicate 2": 4.55e5, "Renilla control light, replicate 1": 2.61e6, "Renilla control light, replicate 2": 2.03e6}
{"gene": "RhoGAPp190 (Rho GTPase activating protein p190)", "dsRNA": "DRSC20099", "firefly reporter light, replicate 1": 92563, "firefly reporter light, replicate 2": 80075, "Renilla control light, replicate 1": 9.03e5, "Renilla control light, replicate 2": 4.50e5}
{"gene": "CG10713", "dsRNA": "DRSC09786", "firefly reporter light, replicate 1": 3.60e5, "firefly reporter light, replicate 2": 1.98e5, "Renilla control light, replicate 1": 1.62e6, "Renilla control light, replicate 2": 1.11e6}
{"gene": "CG10713", "dsRNA": "DRSC24532", "firefly reporter light, replicate 1": 5.72e5, "firefly reporter light, replicate 2": 5.24e5, "Renilla control light, replicate 1": 9.13e5, "Renilla control light, replicate 2": 9.32e5}
{"gene": "CG32453", "dsRNA": "DRSC21673", "firefly reporter light, replicate 1": 5.78e5, "firefly reporter light, replicate 2": 5.29e5, "Renilla control light, replicate 1": 2.77e6, "Renilla control light, replicate 2": 2.27e6}
{"gene": "Ugt303B1 (UDP-glycosyltransferase family 303 member B1)", "dsRNA": "DRSC15141", "firefly reporter light, replicate 1": 2.21e5, "firefly reporter light, replicate 2": 2.41e5, "Renilla control light, replicate 1": 2.73e6, "Renilla control light, replicate 2": 2.53e6}
{"gene": "CG32269 + CG32270", "dsRNA": "DRSC08195", "firefly reporter light, replicate 1": 1.04e5, "firefly reporter light, replicate 2": 91793, "Renilla control light, replicate 1": 1.47e6, "Renilla control light, replicate 2": 1.82e6}
{"gene": "TfIIB (Transcription factor IIB)", "dsRNA": "DRSC03454", "firefly reporter light, replicate 1": 1.89e5, "firefly reporter light, replicate 2": 1.66e5, "Renilla control light, replicate 1": 1.28e6, "Renilla control light, replicate 2": 1.19e6}
{"gene": "CG9360", "dsRNA": "DRSC20180", "firefly reporter light, replicate 1": 3.52e5, "firefly reporter light, replicate 2": 3.64e5, "Renilla control light, replicate 1": 3.61e6, "Renilla control light, replicate 2": 3.60e6}
{"gene": "Efhc1.2 (EF-hand domain containing 1.2)", "dsRNA": "DRSC06027", "firefly reporter light, replicate 1": 8.23e5, "firefly reporter light, replicate 2": 3.52e5, "Renilla control light, replicate 1": 1.25e6, "Renilla control light, replicate 2": 6.37e5}
{"gene": "CG14286", "dsRNA": "DRSC14767", "firefly reporter light, replicate 1": 1.77e5, "firefly reporter light, replicate 2": 2.28e5, "Renilla control light, replicate 1": 2.75e6, "Renilla control light, replicate 2": 3.02e6}
{"gene": "CG14286", "dsRNA": "DRSC29125", "firefly reporter light, replicate 1": 7.16e5, "firefly reporter light, replicate 2": 1.06e6, "Renilla control light, replicate 1": 1.52e6, "Renilla control light, replicate 2": 1.50e6}
